Test results reported in publication PMC6514138.

Sequences of proteins named here, by UniProt entry; tags and fusion partners are left off. A change or cut given only in a name is not applied to a line headed by its entry.
UniProt Q4WJA0: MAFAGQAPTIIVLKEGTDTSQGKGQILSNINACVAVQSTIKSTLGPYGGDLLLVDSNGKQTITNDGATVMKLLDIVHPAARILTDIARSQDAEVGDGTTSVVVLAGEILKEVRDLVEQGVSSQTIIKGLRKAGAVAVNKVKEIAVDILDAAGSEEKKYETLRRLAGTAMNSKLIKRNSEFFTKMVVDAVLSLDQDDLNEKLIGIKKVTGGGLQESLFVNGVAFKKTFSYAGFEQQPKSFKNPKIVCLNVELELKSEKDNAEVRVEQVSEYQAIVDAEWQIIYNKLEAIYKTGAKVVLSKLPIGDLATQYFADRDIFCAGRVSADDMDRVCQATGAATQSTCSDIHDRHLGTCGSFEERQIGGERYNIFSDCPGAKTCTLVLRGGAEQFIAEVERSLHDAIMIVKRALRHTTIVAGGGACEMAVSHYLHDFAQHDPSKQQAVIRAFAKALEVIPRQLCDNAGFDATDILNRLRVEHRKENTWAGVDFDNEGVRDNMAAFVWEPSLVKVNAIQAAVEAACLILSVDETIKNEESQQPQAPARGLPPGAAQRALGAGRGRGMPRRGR
UniProt Q4WZR6: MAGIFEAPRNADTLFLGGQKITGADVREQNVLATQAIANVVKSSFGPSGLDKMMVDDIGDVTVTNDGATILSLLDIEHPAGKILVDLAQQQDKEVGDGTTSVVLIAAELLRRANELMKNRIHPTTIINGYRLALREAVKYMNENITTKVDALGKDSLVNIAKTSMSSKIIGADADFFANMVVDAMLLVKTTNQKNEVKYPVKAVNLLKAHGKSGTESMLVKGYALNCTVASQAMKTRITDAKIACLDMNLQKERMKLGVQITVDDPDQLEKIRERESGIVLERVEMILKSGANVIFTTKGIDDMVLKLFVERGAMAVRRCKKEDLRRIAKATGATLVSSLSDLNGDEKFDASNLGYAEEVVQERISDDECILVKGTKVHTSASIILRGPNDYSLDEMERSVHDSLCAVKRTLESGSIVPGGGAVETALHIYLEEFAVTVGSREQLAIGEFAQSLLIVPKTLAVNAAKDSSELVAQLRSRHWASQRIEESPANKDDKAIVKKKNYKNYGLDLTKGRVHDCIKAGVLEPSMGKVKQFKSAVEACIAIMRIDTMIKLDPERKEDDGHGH
UniProt Q4WYW9: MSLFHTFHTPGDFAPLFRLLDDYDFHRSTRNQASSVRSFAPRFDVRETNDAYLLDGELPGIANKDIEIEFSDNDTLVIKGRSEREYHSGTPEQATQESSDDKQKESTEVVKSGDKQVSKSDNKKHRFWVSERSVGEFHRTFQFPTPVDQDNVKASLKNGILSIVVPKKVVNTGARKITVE
UniProt Q4WW00: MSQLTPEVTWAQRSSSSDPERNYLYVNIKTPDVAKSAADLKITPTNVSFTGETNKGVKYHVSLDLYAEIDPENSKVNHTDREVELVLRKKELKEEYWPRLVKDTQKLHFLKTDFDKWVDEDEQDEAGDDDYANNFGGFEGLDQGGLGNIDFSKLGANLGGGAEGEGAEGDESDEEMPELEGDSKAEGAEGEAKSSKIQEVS
UniProt Q4WJF0: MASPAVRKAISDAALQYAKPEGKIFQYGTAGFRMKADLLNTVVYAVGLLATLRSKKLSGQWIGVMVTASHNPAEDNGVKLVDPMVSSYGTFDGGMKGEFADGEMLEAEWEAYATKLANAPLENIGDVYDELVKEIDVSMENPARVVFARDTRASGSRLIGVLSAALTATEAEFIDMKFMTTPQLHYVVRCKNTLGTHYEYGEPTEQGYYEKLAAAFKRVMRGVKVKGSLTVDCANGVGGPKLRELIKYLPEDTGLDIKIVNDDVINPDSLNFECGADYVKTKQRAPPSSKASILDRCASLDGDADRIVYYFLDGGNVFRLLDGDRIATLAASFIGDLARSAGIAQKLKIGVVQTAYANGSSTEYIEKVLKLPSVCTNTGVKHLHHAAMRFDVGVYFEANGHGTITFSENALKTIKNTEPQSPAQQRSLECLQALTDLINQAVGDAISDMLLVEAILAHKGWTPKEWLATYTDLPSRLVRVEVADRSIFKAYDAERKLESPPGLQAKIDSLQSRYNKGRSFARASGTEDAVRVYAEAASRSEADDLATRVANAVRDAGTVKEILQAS
UniProt Q4WLT4: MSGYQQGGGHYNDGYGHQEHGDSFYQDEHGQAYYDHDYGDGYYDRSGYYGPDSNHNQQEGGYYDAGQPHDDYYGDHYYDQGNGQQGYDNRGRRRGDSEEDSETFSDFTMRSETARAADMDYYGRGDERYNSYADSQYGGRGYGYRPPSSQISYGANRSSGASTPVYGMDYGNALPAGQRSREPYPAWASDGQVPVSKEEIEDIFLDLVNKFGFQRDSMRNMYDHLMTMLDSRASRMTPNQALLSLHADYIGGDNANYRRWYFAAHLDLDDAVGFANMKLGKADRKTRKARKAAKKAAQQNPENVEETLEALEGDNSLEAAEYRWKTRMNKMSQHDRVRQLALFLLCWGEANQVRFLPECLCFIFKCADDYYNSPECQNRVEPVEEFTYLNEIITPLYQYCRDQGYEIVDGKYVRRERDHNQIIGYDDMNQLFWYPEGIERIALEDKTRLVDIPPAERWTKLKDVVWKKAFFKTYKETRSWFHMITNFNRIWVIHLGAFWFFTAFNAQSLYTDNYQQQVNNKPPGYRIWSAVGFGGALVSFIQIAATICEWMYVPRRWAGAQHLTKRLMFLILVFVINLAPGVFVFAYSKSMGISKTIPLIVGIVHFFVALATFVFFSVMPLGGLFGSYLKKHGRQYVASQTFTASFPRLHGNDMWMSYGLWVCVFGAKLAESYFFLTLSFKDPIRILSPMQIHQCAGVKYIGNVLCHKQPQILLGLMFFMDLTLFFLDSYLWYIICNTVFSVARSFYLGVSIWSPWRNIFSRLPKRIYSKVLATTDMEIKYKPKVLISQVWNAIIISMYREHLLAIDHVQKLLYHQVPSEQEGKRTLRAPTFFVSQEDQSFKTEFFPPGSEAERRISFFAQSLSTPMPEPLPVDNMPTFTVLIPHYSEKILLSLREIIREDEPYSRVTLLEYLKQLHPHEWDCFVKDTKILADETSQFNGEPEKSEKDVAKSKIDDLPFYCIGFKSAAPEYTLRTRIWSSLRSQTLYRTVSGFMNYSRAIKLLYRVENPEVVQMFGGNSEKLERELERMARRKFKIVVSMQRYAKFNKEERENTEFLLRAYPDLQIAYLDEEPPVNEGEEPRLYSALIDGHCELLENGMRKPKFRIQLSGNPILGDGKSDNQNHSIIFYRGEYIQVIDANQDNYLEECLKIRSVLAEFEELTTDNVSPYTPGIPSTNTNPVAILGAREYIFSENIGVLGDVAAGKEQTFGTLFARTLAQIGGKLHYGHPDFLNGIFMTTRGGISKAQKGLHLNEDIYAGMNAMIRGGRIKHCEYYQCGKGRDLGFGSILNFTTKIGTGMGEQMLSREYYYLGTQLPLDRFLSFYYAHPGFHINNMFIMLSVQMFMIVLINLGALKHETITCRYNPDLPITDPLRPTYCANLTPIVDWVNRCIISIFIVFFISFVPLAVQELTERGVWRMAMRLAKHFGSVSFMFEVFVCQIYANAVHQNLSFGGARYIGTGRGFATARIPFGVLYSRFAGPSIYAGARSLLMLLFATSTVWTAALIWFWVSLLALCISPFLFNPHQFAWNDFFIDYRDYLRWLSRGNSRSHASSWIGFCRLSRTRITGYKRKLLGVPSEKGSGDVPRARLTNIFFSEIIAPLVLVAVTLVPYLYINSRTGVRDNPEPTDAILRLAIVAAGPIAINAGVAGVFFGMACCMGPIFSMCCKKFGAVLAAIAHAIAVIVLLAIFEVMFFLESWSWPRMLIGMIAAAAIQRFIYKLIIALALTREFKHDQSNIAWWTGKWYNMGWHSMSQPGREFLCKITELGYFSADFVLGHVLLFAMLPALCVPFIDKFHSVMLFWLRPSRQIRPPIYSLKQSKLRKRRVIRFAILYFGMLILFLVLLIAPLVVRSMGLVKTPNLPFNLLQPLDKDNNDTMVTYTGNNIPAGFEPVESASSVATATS

B1: Sun1 (enzyme, UniProt Q4WGL5 20-414)
chain: QHHHQHRHHQHKREDVVESSATVVQYELDGKPISLKQVCAGLADNTLKFANNDHPTGICDNLSSAAAPASTPEVTSAFAPAQFIELSSVVTSATPTSASSSETVQTPAASSSSASSSSTATGLDADFPDGELDCSTFPSEYGAIPLDYLKLGGWSGIQYVSYAGNFINDIVTAVAGDTCKDGAMCSYACPPGYQKSQWPSTQGATGQSVGGIECRNGKLHLTNPSLSKKLCIPGVGGVHVQNTLGETVAVCRTDYPGTESETIPIGLGGNDLQPLTCPDGETYYKWQGKTTSAQYYVNPKGVTPEKGCQWGDGTQPIGNWAPVNLGVGLNKGKWLSIFQNSPTTSEKLDFNIKIKGDNLSGSCKYENGVFYSETGSSSSGCTVQVMSGDATFVFY
B2: NsdD (protein, UniProt Q4WYQ4 1-493)
chain: MGSLEATHRQRDHLPTISFFTKDGSGYTSRNSTVSSPTPLVSPTTMYPSQPSPYSYQPSAASAPPQPGYISPPESRRALEEEKEKQLQPQRQSLPSIHEALRNDSPLPYPAPPTSGPLPQAHPHPPHALVGRSAGDGPAGPPNPFSNGAPAGPYMREPAYSQLQTEASRSSLASITTQESRNPSLQSLNSSKSPTHSAKTGLTSIAGSQTGSGYEYSAPTSAGSIASPNGYTAYSQPFTFQSQPPPNAPTYPLAHHDTRPYAATPWKPGAPEPPRVEELKNGLAGRPAVPVQPQGDSAKRHLDIYEVETSLNEIVEVSTRTLDFSRHYATRAHQTQRSGPMLGTLPPLHEIEDMINLQRRNQDALMRLRTAVLNQEHALAEQMAQRKAFSAGGVHDSDHMAMYQEEFKGSGGFAGPDTKKRRGKAAPPGRCHSCNRAETPEWRRGPDGARTLCNACGLHYAKLTRKMGASKAASLGSNLKPKAALDPTPPGTR

Molecular target: T1, MpkC:GFP (Aspergillus fumigatus) (UniProt Q4WUN7)
T1 sequence: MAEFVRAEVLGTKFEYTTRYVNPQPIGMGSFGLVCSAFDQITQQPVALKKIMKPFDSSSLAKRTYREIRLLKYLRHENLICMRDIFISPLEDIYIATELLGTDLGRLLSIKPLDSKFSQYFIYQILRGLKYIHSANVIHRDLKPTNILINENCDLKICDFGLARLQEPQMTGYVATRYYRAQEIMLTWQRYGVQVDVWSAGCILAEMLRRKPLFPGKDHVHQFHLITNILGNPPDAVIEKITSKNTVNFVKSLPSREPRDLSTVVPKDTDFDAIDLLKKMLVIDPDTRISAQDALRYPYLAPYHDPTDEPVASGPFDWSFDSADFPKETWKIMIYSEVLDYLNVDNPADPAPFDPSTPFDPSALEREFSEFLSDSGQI
Test: affinity purification with mass spectrometry; magnetic GFP-trap beads with crude extracts of SakA:GFP or MpkC:GFP cultures grown 24 h and exposed to sorbitol 1.0 M (10, 30, 60 min) or CR 300 ug/ml (5, 15, 30, 60 min); B250 buffer (250 mM NaCl, 100 mM Tris-HCl pH 7.5, 10% glycerol, 1 mM EDTA, 0.1% NP-40), 4 C, 3 h; proteins also found with the wild-type control removed; LC-MS/MS

Molecule | binding
Afu1g01740 | binds
Afu1g06710 (from UniProt Q4WJA0) | binds
Afu2g02320 | binds
Afu2g16020 (from UniProt Q4WZR6) | binds
Afu3g14540 (from UniProt Q4WYW9) | binds
Afu5g13920 (from UniProt Q4WW00) | binds
Afu6g07540 | binds
Afu7g01860 | binds
Agm1 (from UniProt Q4WJF0) (enzyme) | binds
Fks1 (from UniProt Q4WLT4) (enzyme) | binds
B1 | binds
B2 | binds

Results are given in words; binding and its absence hold for the method and conditions named. In cells and extracts the contact can be indirect. A yes stands for co-enrichment or nearness to the bait. Other partners may have been found. Where a sequence is shown, tags or fusion partners need not be part of it.
